According to the supplement of paper PMC12009310:
Where a name gives a salt, the structure may show the parent alone. ± gives the standard deviation of the averaged measurements. The list shows a part of the results. Plates or batches differ in their baseline, so values are only roughly comparable.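 The cells are a mouse kidney inner medullary collecting duct line, silenced either for the ciliary gene Rpgrip1l or with a non-targeting control siRNA.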

Key:
mIMCD3 [1] = assay: robust z score of cell number vs plate controls; higher = more cells (less cytotoxic); details: 10 µM, 48 h
mIMCD3 [2] = assay: robust z score of cilia incidence (% cells with single cilium) vs plate controls; higher = more ciliated cells; details: 10 µM; 48 h; siRNA: siScr
mIMCD3 [3] = assay: robust z score of cilia incidence (% cells with single cilium) vs plate controls; higher = more ciliated cells (rescue of cilia loss); details: 10 µM; 48 h; siRNA: siRpgrip1l

Row | SMILES | robust z score of cell number (mIMCD3 [1]; siRNA: siRpgrip1l) | robust z score of cell number (mIMCD3 [1]; siRNA: siScr) | robust z score of cilia incidence (mIMCD3 [2]) | robust z score of cilia incidence (mIMCD3 [3])
1 | Cc1oncc1C(=O)Nc1ccc(C(F)(F)F)cc1 [Leflunomide] | -19.8 ± 23 | -8.42 ± 0.6 | 2.56 ± 2.7 | -12 ± 1.4
2 | CCc1cc2c(c(CC)n1)CCC(=O)N2Cc1ccc(-c2ccccc2-c2nn[nH]n2)cc1 [ZD 7155 hydrochloride] | -9.46 ± 6.5 | -1.92 ± 1.5 | -0.352 ± 0.31 | -16.3 ± 4.8
3 | CC/C(=C(\c1ccccc1)c1ccc(OCCN(C)C)cc1)c1ccccc1 [Tamoxifen citrate] | -30.7 ± 0.55 | -27.8 ± 14 | -47.7 ± 7.5 | -24.8 ± 11
4 | OCC(CO)N[C@H]1C[C@](O)(CO)[C@@H](O)[C@H](O)[C@H]1O [Voglibose] | -24.4 ± 30 | -3 ± 7.1 | -0.629 ± 1.2 | -7.42 ± 0.75
5 | CCOC(=O)[C@H](CCc1ccccc1)N[C@H]1CCc2ccccc2N(CC(=O)O)C1=O [Benazepril hydrochloride] | -4.85 ± 1.3 | -35.1 ± 38 | 1.27 ± 1 | -14.3 ± 0.58
6 | CC(=O)N(O)[C@@H]1c2cc(C#N)ccc2OC(C)(C)[C@H]1O | -17.5 ± 18 | -0.74 ± 1.9 | -3.35 ± 5 | -4.64 ± 0.28
7 | Cc1nn(C)c2nc(NNC(=O)Nc3cc(Cl)nc(Cl)c3)cc(C(C)C)c12 | -28.9 ± 14 | -25.9 ± 4.3 | -10.8 ± 7.6 | -12.3 ± 4.1
8 | O=[N+]([O-])c1cccc2c[nH]nc12 | -6.42 ± 2.7 | -4.76 ± 1.1 | 2.69 ± 0.44 | 0.335 ± 3.1
9 | COc1cccc2c1C(=O)c1c(O)c3c(c(O)c1C2=O)C[C@@](O)(C(C)=O)C[C@@H]3O[C@H]1C[C@H](N)[C@H](O)[C@H](C)O1 [Daunorubicin hydrochloride] | -62 ± 53 | -51.4 ± 1.4 | -75.3 ± 18 | -44.95 ± 0.15
10 | NC(N)=Nc1ccc(Cl)cc1 [4-Chlorophenylguanidine hydrochloride] | 4.31 ± 4.9 | -0.0848 ± 0.35 | 0.945 ± 1.2 | -4.27 ± 5
11 | Cc1ccc(C(=O)Nc2ccc(S(=O)(=O)O)c3cc(S(=O)(=O)O)cc(S(=O)(=O)O)c23)cc1NC(=O)c1cccc(NC(=O)Nc2cccc(C(=O)Nc3cc(C(=O)Nc4ccc(S(=O)(=O)O)c5cc(S(=O)(=O)O)cc(S(=O)(=O)O)c45)ccc3C)c2)c1 [Suramin hexasodium salt] | -35.9 ± 39 | -4.29 ± 2.1 | -0.589 ± 2 | -165 ± 51
12 | O=C1NC(=O)c2cc(Nc3ccccc3)c(Nc3ccccc3)cc21 | -28.7 ± 26 | -12.9 ± 12 | -11.7 ± 4 | -18.1 ± 10
13 | CC1OC2(CS1)CN1CCC2CC1 (configuration not stated) [Cevimeline hydrochloride] | -36.2 ± 27 | -39.74 ± 0.37 | -41.5 ± 12 | -24.7 ± 10
14 | c1ccc2oc(C3=NCCN3)cc2c1 [2-BFI hydrochloride] | 9.2 ± 8.9 | -6.11 ± 4.5 | 1.83 ± 1.4 | -0.879 ± 0.4
15 | CCC(=O)NC[C@H](Cc1ccc(OCCc2nc(-c3ccccc3)oc2C)cc1)N/C(C)=C\C(=O)c1ccc(C(F)(F)F)cc1 | -23.3 ± 12 | -18.3 ± 2.2 | -16.6 ± 13 | -25.9 ± 16
16 | CN1C(=O)C(Cc2c[nH]c3ccccc23)NC1=S (configuration not stated) [Necrostatin-1] | -4.14 ± 4.4 | 6.19 ± 2.4 | 0.909 ± 2.7 | -7.63 ± 2.3
17 | OCCNCCCOc1cccc(Cl)c1Cl [2,3-DCPE hydrochloride] | -9.08 ± 5.3 | -18.7 ± 18 | -5.76 ± 2.4 | -16.4 ± 11
18 | c1ccc(N2CCN(Cc3nc4ccccc4[nH]3)CC2)nc1 [ABT 724 trihydrochloride] | 1.91 ± 1 | -0.759 ± 3.4 | 0.126 ± 1.4 | -7.02 ± 2.2
19 | COc1ccc2c3c1O[C@H]1C[C@@H](O)C=C[C@@]31CCN(C)C2 [Galanthamine hydrobromide] | 0.739 ± 2.9 | -4.59 ± 5.4 | 0.434 ± 0.38 | -8.78 ± 2.7
20 | OC(CCCN1CCN(c2ncc(F)cn2)CC1)c1ccc(F)cc1 (configuration not stated) | -24.8 ± 25 | -2.99 ± 2.8 | -2.25 ± 2.4 | -196 ± 150
21 | Nc1nc(Cl)nc2c1ncn2[C@@H]1O[C@H](CO)[C@@H](O)[C@@H]1F [Clofarabine] | -32.9 ± 11 | -144 ± 110 | -66.2 ± 16 | -51.3 ± 7
22 | CCCCN1CCC(CCC(=O)c2cc(Cl)c(N)cc2OC)CC1 | -12.8 ± 0.47 | -14.4 ± 13 | -27.7 ± 9.4 | -23.5 ± 3.3

Part of the list above in order of molar mass, descending.
Row | SMILES | robust z score of cell number (mIMCD3 [1]; siRNA: siRpgrip1l) | robust z score of cell number (mIMCD3 [1]; siRNA: siScr) | robust z score of cilia incidence (mIMCD3 [2]) | robust z score of cilia incidence (mIMCD3 [3])
15 | CCC(=O)NC[C@H](Cc1ccc(OCCc2nc(-c3ccccc3)oc2C)cc1)N/C(C)=C\C(=O)c1ccc(C(F)(F)F)cc1 | -23.3 ± 12 | -18.3 ± 2.2 | -16.6 ± 13 | -25.9 ± 16
5 | CCOC(=O)[C@H](CCc1ccccc1)N[C@H]1CCc2ccccc2N(CC(=O)O)C1=O [Benazepril hydrochloride] | -4.85 ± 1.3 | -35.1 ± 38 | 1.27 ± 1 | -14.3 ± 0.58
20 | OC(CCCN1CCN(c2ncc(F)cn2)CC1)c1ccc(F)cc1 (configuration not stated) | -24.8 ± 25 | -2.99 ± 2.8 | -2.25 ± 2.4 | -196 ± 150
1 | Cc1oncc1C(=O)Nc1ccc(C(F)(F)F)cc1 [Leflunomide] | -19.8 ± 23 | -8.42 ± 0.6 | 2.56 ± 2.7 | -12 ± 1.4

Following part.

Row | SMILES | robust z score of cell number (mIMCD3 [1]; siRNA: siRpgrip1l) | robust z score of cell number (mIMCD3 [1]; siRNA: siScr) | robust z score of cilia incidence (mIMCD3 [2]) | robust z score of cilia incidence (mIMCD3 [3])
23 | c1ccc2nc(C3=NCCN3)cnc2c1 [BU 239 hydrochloride] | -4.56 ± 2.4 | -2.283 ± 0.012 | 2.45 ± 2.6 | -6.41 ± 0.14
24 | Cc1c(CC(C)(C)C(=O)O)n(Cc2ccc(Cl)cc2)c2ccc(F)cc12 | -44.1 ± 40 | -43.8 ± 28 | -31.2 ± 8 | -46.3 ± 40
25 | c1ccc(CN2CCC3(CCc4ccccc43)CC2)cc1 [L-693,403 maleate] | -82 ± 73 | -58.6 ± 18 | -33.3 ± 1.1 | -44.7 ± 24
26 | C=CCn1c(=O)n([C@@H]2O[C@H](CO)[C@@H](O)[C@H]2O)c2nc(N)[nH]c(=O)c21 | -5.52 ± 2.4 | -0.605 ± 1.1 | 0.636 ± 0.0066 | -6.16 ± 0.26
27 | COc1ccc(NC(=O)c2ccc(-c3ccc(-c4noc(C)n4)cc3C)cc2)cc1N1CCN(C)CC1 | -192 ± 220 | -44.8 ± 11 | -47.6 ± 13 | -555 ± 330
28 | CC(=O)N1CCN(c2ccc(OCC3COC(Cn4ccnc4)(c4ccc(Cl)cc4Cl)O3)cc2)CC1 (configuration not stated) [Ketoconazole] | -61.4 ± 53 | -51.3 ± 1.2 | -72.7 ± 11 | -41 ± 4.4
29 | Oc1cc2c(cc1O)CN(C(=S)NCCc1ccc(Cl)cc1)CCC2 [Capsazepine] | -126 ± 100 | -83.7 ± 45 | -40.5 ± 8.3 | -48.3 ± 27
30 | CCCN(C/C=C/I)C1CCc2cccc(O)c2C1 (configuration not stated) [8-Hydroxy-PIPAT oxalate] | -49.1 ± 64 | -4.19 ± 7.2 | -0.0375 ± 0.64 | -6.8 ± 0.72
31 | O=c1oc(-c2ccc(C(F)(F)F)cc2)nn1Cc1cc(Cl)ccc1O | -12.5 ± 4.1 | -51 ± 39 | -5.35 ± 5.1 | -18.2 ± 0.83
32 | O=S(=O)(c1ccccc1)N(CC(F)(F)F)c1ccc(C(O)(C(F)(F)F)C(F)(F)F)cc1 | -29.6 ± 15 | -27.3 ± 4.7 | -52 ± 38 | -32.7 ± 19
33 | Cn1cnc2c(NCc3ccccc3)nc(NCCO)nc21 [Olomoucine] | -33.7 ± 37 | 0.222 ± 2 | 1.6 ± 1.3 | -9.2 ± 2.6
34 | CCS(=O)(=O)N1CCC[C@@H]2CN3CCc4cc(OC)ccc4[C@@H]3C[C@@H]21 | -6.45 ± 1.2 | -5.14 ± 2.4 | -13.1 ± 4.4 | -15.9 ± 3.4
35 | CCCCCCCCCCCC1=C(O)C(=O)C=C(O)C1=O [Embelin] | -2.67 ± 3.1 | -0.676 ± 2 | 1.5 ± 2.9 | -8.31 ± 6.2
36 | COc1cc2nc(N3CCN(C(=O)C4CCCO4)CC3)nc(N)c2cc1OC (configuration not stated) [Terazosin hydrochloride] | -27.7 ± 32 | 2.97 ± 4.3 | 0.784 ± 0.84 | -148 ± 100
37 | CN1CCN(C2=Cc3ccccc3Oc3ccc(Cl)cc32)CC1 | -25.7 ± 3.3 | -24.6 ± 3.5 | -33.9 ± 11 | -32.83 ± 0.14
38 | CNCCCC12CCC(c3ccccc31)c1ccccc12 [Maprotiline hydrochloride] | -24.1 ± 4.1 | -18 ± 8.5 | -26.9 ± 4.8 | -25.6 ± 6.8
39 | O=C1c2ccccc2C(Cc2ccnc(F)c2)(Cc2ccnc(F)c2)c2ccccc21 | -6.93 ± 1.6 | -1.77 ± 2.3 | -1.06 ± 2.3 | -15.9 ± 11
40 | O=C(Nc1ccc(C(F)(F)F)cn1)N1CCN(c2ncccc2C(F)(F)F)CC1 | -4.58 ± 2.5 | -4.29 ± 1.5 | -7.13 ± 11 | -4.91 ± 0.18
41 | O=C1NC(c2cccc([N+](=O)[O-])c2)=CCN1c1ccccc1O [Icilin] | 1.19 ± 2 | -1.61 ± 0.2 | -0.226 ± 4 | -132 ± 120
42 | COc1ccc(OC)c2c(=S)c3ccccc3[nH]c12 | -3.22 ± 0.7 | -8.58 ± 6.1 | -0.484 ± 0.28 | -13.7 ± 8.8
43 | COC(=O)C1=C(C)NC(C)=C(C(=O)OCCSc2ccccc2)C1C (configuration not stated) | -98.8 ± 76 | -115 ± 99 | -5.11 ± 1.6 | -19.3 ± 1.5
